Measured values published in the supplement of paper PMC12823440, “Inhibitors supercharge kinase turnover through native proteolytic circuits” (Nature, 2025).
Structures can show the parent of a compound that is named as a salt. This is one part of the list. Hit calls seldom repeat between salt and free forms of one compound.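 In K562 cells expressing nanoluciferase-fused kinases, luminescence was recorded at 4 h intervals between 2 and 18 h, normalized as percent of control with DMSO at 100% and a positive control at 0%. A significant (2 sigma) signal drop marks a time point as decreased. The authors' rule for a hit is not shown and takes in more than the number of time points.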

By UniProt entry, the sequences of proteins in these tests, tags left out. Where a name states a change or a piece, a line headed by the entry shows the natural chain unless it says otherwise.
UniProt Q92630: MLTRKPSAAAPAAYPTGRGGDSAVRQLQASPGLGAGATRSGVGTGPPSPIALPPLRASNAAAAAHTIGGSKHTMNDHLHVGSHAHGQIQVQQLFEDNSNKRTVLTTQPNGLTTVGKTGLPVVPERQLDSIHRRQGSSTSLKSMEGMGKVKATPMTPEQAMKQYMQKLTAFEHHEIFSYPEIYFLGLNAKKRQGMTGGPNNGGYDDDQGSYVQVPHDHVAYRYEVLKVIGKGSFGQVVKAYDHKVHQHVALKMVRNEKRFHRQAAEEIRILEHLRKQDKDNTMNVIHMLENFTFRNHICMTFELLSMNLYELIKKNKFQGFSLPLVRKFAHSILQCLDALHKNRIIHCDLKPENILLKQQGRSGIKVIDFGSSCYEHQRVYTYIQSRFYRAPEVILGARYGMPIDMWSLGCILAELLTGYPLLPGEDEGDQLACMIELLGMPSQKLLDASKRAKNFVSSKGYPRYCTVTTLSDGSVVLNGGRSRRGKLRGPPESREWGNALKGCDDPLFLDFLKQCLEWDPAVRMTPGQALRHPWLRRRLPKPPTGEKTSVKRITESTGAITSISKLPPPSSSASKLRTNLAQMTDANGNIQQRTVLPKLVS

Each compound was assayed against DYRK2 (UniProt Q92630) (assay: number of time points (of 5) at which kinase-Nluc abundance scored as decreased, DMSO-normalised (count); higher = more persistent destabilization). Details: K562; 2-18 h.

SMILES	number of time points
COc1cc(S(C)(=O)=O)ccc1Nc1nc2ccc(-c3ccc(NC(=O)[C@H](C)c4ccc(F)cc4)cc3)cn2n1 [Empesertib] (10 µM)	0
CO[C@H]1C[C@@H]2CC[C@@H](C)[C@@](O)(O2)C(=O)C(=O)N2CCCC[C@H]2C(=O)O[C@H]([C@H](C)C[C@@H]2CC[C@@H](O)[C@H](OC)C2)CC(=O)[C@H](C)/C=C(\C)[C@@H](O)[C@@H](OC)C(=O)[C@H](C)C[C@H](C)/C=C/C=C/C=C/1C [Rapamycin] (10 µM)	0
COc1ccc(Cl)cc1NC(=O)Nc1cc(C)nc2ccccc12 (2.5 µM)	0
CNc1nc(Nc2cnn(C3CCN(C4COC4)CC3F)c2Cl)ncc1C(F)(F)F (stereo not drawn) (10 µM)	0
Cc1ccc2nc(NC(=O)CSc3nc4c(c(=O)n3-c3ccccc3)SCC4)sc2c1 (2 µM)	0
Cc1noc(C)c1-c1ccc(-c2cc(C(N)=O)c(NC(N)=O)s2)c(O[C@H]2CCNC2)c1 (10 µM)	0
Fc1ccc(-c2nc(-c3c(F)cccc3F)[nH]c2-c2ccncc2)cc1 (10 µM)	0
C=CC(=O)Nc1ccc(CN(C(=O)Nc2c(Cl)c(OC)cc(OC)c2Cl)c2cc(Nc3ccc(N4CCN(C)CC4)cc3)ncn2)cc1 (10 µM)	0
CCN(CC)c1ccc2cc(C(=O)N3CCN(C(=O)C4=Cc5c(Br)cccc5S4(=O)=O)CC3)c(=O)oc2c1 (2 µM)	0
CN1CCN(c2ccc(Nc3ncc4nc(Nc5ccccc5)n([C@@H]5CCN(S(=O)(=O)C6CC6)C5)c4n3)cc2)CC1 (2.5 µM)	3
COCCOc1ccc(-c2cn(-c3ccccc3)c3nc[nH]c(=O)c23)cc1 (10 µM)	0
CC(C)CC1(O)CCN(C(=O)c2ccc(NS(=O)(=O)c3cccc4nccnc34)cc2)CC1 (10 µM)	0
Cc1cc(Nc2cc(Cl)nc(Oc3ccc([N+](=O)[O-])cc3)n2)n[nH]1 [Autophinib] (2.5 µM)	0
O=C(NCCO)c1ccc2c(c1)nc(Nc1cccc(Cl)c1)c1ccncc12 [CK2 inhibitor 2] (10 µM)	0
COc1ccc(C2CC(c3ccccc3)=NN2c2ccc(S(N)(=O)=O)cc2)cc1 (stereo not drawn) (10 µM)	0
C[C@@H]1O[C@@H](O[C@H]2[C@H](Oc3cc(O)c4c(=O)cc(-c5ccc(O)cc5)oc4c3)O[C@H](CO)[C@@H](O)[C@@H]2O)[C@H](O)[C@H](O)[C@H]1O [Rhoifolin] (10 µM)	0
O=[N+]([O-])c1cc(C(F)(F)F)cc([N+](=O)[O-])c1NNC(=S)Nc1ccc(F)cc1 (10 µM)	0
CCc1cc(O)c(F)cc1-c1ccc2c(-c3nc4c([nH]3)CN(C3CCN(C)CC3)CC4)n[nH]c2c1 [JAK-IN-5 (hydrochloride)] (2 µM)	4
O=C(Nc1cccnc1)c1cc(C(=O)c2c(F)cccc2Br)c[nH]1 (10 µM)	0

A run of entries from the list above:
SMILES	number of time points
C=CC(=O)Nc1ccc(CN(C(=O)Nc2c(Cl)c(OC)cc(OC)c2Cl)c2cc(Nc3ccc(N4CCN(C)CC4)cc3)ncn2)cc1 (10 µM)	0
CCN(CC)c1ccc2cc(C(=O)N3CCN(C(=O)C4=Cc5c(Br)cccc5S4(=O)=O)CC3)c(=O)oc2c1 (2 µM)	0
CN1CCN(c2ccc(Nc3ncc4nc(Nc5ccccc5)n([C@@H]5CCN(S(=O)(=O)C6CC6)C5)c4n3)cc2)CC1 (2.5 µM)	3

Remaining list, next part.

SMILES	number of time points
COc1ccc2c(c1O)OC(C)(C)c1c-2ccc2c1C(=O)N(c1ccc(C(=O)c3ccccc3)cc1)C2=O [Ampkinone] (10 µM)	0
CC1CCc2nc(N)c(C#N)c(-c3cccnc3)c2C1 (stereo not drawn) (10 µM)	0
COc1cc(F)c(F)c(Nc2ccc(I)cc2F)c1NS(=O)(=O)C1(C[C@H](O)CO)CC1 [Refametinib] (10 µM)	2
Cn1nccc1Nc1nccc(-c2cc3c(s2)C(C)(C)N(CCN2CCOCC2)C3=O)n1 (10 µM)	0
Cc1ccc(-c2c(C(=O)CCl)n(CCCO)c3ncnc(N)c23)cc1 (10 µM)	0
N[C@H](Cc1c[nH]c2ccccc12)C(=O)N/N=C/c1ccc2nccnc2c1 [Rhosin (hydrochloride)] (10 µM)	0
CNCc1ccccc1-c1csc([C@@H](C)Nc2nc(C)nc3cc(OC)c(OC)cc23)c1 (2.5 µM)	2
Cn1cnc(-c2cc3nccc(Oc4ccc(NC(=S)NC(=O)Cc5ccccc5)cc4F)c3s2)c1 [MGCD-265 analog] (10 µM)	4
C=C1C(=O)O[C@@H]2C[C@@]3(C)CCC[C@H](C)C3=C[C@H]12 [Alantolactone] (10 µM)	0
O=C(Nc1ccc(F)cc1F)[C@H](NC(=S)Nc1cc(C(F)(F)F)cc(C(F)(F)F)c1)c1ccccc1 (2.5 µM)	0
Fc1ccc(-c2nc(-c3ccccc3F)[nH]c2-c2ccncc2)cc1 (2.5 µM)	0
Cc1ccc(Oc2nc3cc(-c4ccc5c(ccn5C)c4)c(Cl)cc3[nH]2)cc1C(=O)O (10 µM)	0
COc1ccc([C@H]2c3[nH]c4ccc(Cl)cc4c3CCN2C(=O)Oc2ccc(Cl)cc2)cc1 (2.5 µM)	0
COc1ncc(-c2nc(N3CCOCC3)nc3c(CN4CCC(C(C)(C)O)CC4)cc(F)cc23)cc1NS(C)(=O)=O [Linperlisib] (10 µM)	0
C[C@@H](c1ccc2nccn2c1)n1nnc2ncc(-c3cnn(C)c3)nc21 [Savolitinib] (10 µM)	0
CCn1c(-c2nonc2N)nc2cnc(Oc3cccc(NC(=O)c4ccc(OCCN5CCOCC5)cc4)c3)cc21 (10 µM)	0
COc1ccc(C(=O)Nc2sc3c(c2C(N)=O)CCCC3)cc1OC (10 µM)	0
COc1ccc(CC(=O)Nc2nc3c(s2)CCc2ccccc2-3)cc1OC (10 µM)	0
O=C1Nc2nc(-c3c(O)cccc3OCC3CC3)cc([C@@H]3CCCNC3)c2CO1 [Bay 65-1942 (hydrochloride)] (10 µM)	4
